Measured values published in the supplement of paper PMC6411743.
± gives the standard deviation of the averaged measurements. Only a part is listed here, and it is no random draw. Most values lie at the level of the controls, where differences are scatter.

Chains of the proteins cited; added tags and fusions are not shown. Lines headed by an entry give the natural chain unless they say otherwise; changes in a name come on top.
UniProt Q9UMY1: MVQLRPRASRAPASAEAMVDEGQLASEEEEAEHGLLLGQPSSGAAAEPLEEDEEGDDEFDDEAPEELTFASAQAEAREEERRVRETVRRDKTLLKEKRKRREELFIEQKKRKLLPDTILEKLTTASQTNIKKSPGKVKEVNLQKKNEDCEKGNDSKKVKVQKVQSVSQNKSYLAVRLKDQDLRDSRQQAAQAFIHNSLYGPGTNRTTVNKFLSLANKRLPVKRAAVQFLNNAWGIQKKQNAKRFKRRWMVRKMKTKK
UniProt Q9ULF5: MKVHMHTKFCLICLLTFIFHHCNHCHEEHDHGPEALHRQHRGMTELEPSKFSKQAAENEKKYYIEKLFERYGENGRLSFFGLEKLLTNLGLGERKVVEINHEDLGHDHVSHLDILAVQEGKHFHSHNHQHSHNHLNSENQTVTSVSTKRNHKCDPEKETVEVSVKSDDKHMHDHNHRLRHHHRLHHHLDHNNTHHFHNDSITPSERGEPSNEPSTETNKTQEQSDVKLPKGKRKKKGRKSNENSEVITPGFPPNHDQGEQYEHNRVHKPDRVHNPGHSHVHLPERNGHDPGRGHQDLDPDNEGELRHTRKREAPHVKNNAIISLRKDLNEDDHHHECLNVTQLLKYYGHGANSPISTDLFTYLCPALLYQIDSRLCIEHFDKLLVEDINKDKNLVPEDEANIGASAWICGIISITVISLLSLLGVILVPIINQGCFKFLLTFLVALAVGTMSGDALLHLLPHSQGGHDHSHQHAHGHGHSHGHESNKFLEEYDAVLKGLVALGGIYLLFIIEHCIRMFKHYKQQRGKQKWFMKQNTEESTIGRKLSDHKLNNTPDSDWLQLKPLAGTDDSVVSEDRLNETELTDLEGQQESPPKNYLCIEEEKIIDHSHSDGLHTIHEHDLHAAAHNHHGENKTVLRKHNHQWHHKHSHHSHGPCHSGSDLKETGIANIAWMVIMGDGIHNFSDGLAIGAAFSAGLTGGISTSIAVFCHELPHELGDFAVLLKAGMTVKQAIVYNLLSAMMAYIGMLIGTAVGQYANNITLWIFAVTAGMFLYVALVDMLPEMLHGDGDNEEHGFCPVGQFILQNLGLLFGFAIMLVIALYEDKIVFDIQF
UniProt Q9UHR6: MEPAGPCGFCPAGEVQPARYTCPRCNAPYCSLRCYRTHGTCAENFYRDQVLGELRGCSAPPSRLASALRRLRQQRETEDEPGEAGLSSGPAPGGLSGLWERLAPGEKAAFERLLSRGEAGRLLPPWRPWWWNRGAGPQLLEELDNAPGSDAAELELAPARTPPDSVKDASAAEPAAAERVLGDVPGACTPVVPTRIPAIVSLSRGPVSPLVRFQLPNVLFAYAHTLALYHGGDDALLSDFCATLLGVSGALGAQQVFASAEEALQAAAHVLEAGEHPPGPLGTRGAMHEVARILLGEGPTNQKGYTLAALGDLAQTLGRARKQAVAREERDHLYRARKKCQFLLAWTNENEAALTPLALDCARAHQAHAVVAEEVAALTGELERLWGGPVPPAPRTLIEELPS
UniProt Q9UG22: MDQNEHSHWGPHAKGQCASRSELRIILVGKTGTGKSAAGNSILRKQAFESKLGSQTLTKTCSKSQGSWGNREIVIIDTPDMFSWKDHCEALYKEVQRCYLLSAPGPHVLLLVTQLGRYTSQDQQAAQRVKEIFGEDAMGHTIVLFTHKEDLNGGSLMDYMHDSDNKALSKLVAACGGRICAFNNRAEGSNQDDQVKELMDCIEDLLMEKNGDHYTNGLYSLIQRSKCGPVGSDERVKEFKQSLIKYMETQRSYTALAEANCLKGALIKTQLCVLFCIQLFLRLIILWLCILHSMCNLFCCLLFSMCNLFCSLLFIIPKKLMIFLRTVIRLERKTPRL
UniProt Q9UFN0: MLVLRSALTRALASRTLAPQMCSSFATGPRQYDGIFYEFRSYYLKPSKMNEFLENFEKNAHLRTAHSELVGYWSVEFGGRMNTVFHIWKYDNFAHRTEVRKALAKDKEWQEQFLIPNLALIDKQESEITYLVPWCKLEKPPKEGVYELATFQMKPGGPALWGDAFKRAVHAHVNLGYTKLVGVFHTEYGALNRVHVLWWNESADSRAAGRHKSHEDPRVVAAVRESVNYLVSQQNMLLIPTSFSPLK
UniProt Q9UK41: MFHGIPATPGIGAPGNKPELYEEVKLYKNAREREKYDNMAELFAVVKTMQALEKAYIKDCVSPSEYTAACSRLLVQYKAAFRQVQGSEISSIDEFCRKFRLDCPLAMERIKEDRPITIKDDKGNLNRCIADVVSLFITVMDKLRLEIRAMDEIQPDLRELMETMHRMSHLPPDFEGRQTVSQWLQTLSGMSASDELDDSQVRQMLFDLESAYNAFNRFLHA
UniProt Q9UHA4, whole entry: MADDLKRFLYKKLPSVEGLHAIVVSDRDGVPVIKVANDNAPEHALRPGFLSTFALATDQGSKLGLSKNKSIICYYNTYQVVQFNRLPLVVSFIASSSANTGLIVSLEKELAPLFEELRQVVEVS
UniProt Q9ULW0, whole entry: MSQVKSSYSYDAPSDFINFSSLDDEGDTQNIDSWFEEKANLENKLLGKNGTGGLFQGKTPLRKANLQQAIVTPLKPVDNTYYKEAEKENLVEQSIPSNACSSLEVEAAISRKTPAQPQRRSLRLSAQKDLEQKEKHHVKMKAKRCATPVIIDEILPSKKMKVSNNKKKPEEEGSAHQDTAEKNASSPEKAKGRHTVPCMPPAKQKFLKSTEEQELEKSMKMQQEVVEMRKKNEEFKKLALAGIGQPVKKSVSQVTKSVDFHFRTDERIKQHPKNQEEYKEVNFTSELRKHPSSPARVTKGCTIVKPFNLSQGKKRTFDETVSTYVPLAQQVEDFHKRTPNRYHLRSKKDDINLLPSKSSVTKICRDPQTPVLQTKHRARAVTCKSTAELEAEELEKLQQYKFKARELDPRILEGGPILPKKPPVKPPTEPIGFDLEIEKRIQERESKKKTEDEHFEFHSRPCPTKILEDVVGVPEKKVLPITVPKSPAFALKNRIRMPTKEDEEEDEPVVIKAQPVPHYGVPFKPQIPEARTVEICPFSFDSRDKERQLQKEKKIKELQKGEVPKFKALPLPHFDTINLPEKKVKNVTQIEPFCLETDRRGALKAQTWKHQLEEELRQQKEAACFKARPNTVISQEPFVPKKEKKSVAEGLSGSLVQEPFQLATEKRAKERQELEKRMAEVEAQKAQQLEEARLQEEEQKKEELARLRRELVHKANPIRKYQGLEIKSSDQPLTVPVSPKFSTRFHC
UniProt Q9UJA5: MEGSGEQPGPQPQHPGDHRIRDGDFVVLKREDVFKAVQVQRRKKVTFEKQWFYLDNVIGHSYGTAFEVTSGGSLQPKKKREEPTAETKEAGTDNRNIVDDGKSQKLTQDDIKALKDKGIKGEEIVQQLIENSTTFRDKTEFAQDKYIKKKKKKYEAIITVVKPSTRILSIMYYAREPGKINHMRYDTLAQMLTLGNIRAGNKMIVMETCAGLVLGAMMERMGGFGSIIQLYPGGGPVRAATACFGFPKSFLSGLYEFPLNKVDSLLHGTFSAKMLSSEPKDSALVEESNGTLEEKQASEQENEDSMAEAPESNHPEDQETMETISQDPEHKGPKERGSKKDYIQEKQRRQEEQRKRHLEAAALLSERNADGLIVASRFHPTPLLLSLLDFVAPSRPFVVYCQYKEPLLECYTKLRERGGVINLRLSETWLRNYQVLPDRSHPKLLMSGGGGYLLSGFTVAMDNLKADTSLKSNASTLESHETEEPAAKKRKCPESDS
UniProt Q9Y295: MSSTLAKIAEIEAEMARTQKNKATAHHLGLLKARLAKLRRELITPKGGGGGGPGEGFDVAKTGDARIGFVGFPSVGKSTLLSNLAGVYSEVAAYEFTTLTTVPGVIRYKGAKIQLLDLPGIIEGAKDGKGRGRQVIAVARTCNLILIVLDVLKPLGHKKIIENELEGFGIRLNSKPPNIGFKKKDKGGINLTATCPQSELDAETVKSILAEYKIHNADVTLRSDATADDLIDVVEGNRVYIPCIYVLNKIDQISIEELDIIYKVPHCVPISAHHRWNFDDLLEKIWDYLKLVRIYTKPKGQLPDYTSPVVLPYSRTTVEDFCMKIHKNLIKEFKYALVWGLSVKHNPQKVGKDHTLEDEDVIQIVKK
UniProt Q9Y237, whole entry: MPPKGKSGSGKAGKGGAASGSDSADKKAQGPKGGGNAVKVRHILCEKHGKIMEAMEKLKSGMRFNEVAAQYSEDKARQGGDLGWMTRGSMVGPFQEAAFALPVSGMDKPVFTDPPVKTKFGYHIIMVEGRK
UniProt Q9UQN3, whole entry: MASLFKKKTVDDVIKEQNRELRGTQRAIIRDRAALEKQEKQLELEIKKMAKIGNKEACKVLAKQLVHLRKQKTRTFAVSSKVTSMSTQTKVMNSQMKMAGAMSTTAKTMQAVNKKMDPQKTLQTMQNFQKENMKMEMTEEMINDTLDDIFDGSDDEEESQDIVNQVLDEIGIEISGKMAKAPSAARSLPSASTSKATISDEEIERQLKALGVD
UniProt Q9UNK0: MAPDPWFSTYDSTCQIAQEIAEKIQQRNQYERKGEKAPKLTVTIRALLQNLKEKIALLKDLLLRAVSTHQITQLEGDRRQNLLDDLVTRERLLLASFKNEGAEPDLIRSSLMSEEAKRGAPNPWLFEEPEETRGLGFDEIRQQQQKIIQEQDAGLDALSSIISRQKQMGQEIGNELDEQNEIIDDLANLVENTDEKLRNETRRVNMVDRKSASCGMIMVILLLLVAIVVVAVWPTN
UniProt Q9UEU0: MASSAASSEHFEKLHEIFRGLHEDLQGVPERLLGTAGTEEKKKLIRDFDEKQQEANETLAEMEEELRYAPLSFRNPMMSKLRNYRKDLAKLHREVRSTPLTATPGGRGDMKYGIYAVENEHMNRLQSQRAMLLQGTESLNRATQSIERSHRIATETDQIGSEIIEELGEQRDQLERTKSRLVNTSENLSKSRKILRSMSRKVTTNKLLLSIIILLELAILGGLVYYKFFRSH
UniProt Q9UJT0: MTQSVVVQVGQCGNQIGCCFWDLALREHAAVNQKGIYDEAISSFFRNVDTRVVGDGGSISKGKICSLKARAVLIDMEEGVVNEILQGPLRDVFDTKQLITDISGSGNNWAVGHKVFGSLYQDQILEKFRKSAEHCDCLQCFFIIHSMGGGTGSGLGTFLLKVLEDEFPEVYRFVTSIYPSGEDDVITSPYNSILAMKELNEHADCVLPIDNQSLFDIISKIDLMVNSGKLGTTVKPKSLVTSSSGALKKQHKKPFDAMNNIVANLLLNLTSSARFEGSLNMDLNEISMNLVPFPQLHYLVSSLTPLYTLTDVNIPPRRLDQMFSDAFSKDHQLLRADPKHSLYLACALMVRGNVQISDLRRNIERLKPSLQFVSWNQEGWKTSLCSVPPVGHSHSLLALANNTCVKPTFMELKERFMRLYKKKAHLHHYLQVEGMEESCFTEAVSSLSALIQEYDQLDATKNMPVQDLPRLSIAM
UniProt Q9UII2: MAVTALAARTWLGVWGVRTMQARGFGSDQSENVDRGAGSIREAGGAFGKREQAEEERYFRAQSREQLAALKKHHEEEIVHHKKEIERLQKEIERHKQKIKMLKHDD
UniProt Q9P2R3: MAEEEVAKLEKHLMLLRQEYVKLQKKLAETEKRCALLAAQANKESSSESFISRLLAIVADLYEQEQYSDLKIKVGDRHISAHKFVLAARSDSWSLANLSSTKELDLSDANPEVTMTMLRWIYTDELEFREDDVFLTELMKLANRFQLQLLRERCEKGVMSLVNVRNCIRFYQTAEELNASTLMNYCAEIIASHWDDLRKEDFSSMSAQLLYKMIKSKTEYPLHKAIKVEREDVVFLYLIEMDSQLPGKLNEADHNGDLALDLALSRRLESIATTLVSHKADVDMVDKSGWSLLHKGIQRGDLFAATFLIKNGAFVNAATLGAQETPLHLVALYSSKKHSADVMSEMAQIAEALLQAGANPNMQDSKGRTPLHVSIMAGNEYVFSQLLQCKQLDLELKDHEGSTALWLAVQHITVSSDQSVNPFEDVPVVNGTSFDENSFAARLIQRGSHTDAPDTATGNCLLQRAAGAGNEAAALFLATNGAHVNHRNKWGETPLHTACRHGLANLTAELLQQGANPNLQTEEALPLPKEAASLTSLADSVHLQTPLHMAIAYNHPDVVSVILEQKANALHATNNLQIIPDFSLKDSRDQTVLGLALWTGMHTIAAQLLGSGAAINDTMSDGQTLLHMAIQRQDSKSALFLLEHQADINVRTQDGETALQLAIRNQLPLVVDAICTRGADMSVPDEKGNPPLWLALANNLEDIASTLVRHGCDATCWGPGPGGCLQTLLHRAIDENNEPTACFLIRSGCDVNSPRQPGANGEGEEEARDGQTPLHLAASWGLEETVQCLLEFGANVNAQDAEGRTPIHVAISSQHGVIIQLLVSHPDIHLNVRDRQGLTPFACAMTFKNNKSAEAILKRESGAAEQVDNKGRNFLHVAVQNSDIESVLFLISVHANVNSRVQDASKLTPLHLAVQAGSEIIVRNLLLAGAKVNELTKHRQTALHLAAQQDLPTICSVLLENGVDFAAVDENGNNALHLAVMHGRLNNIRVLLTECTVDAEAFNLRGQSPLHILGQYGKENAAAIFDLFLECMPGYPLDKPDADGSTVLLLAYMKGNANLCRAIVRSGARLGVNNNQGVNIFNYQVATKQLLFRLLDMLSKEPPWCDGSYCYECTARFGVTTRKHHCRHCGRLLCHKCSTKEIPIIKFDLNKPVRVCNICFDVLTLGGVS

Compound: Nc1ncnc2c1ncn2[C@@H]1O[C@H](COP(=O)(O)OP(=O)(O)OP(=O)(O)O)[C@@H](O)[C@H]1O [adenosine triphosphate]
Experiment: NP40-soluble protein abundance relative to vehicle (solubility fold change) (ratio); higher = more soluble protein in presence of ATP
In short: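 In three independent experiments, Jurkat crude lysate made by Dounce homogenisation was treated for 10 min at room temperature and then 3 min at 37 °C with eight concentrations ranging from 0.1 to 10 mM. It was then solubilised with 0.8% NP40 plus benzonase for 60 min at 4 °C and ultracentrifuged. The supernatant was TMT-labelled for LC-MS/MS, and each value is the fold change against the detergent-processed vehicle for the same replicate, using vsn-normalised intensities.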

Target	NP40-soluble protein abundance (concentration: 0.1mM)	NP40-soluble protein abundance (concentration: 0.5mM)
HDAC6 (UniProt Q9UBN7)	1 ± 0.079	0.986 ± 0.071
UniProt Q9P275 and related entries	0.96 ± 0.011	0.979 ± 0.077
ZNF148 (UniProt Q9UQR1)	1.04 ± 0.018	1.02 ± 0.035
UniProt Q9UGU0 and related entries	1 ± 0.079	1.05 ± 0.064
NOL7 (UniProt Q9UMY1)	0.927 ± 0.026	1 ± 0.023
UniProt Q9UI08-2|Q9UI08	0.9613 ± 0.0085	0.951 ± 0.016
ZHX1 (UniProt Q9UKY1)	1.02 ± 0.088	1.06 ± 0.014
PCYOX1 (UniProt Q9UHG3)	1.05 ± 0.086	1.04 ± 0.011
SLC39A10 (UniProt Q9ULF5)	0.971 ± 0.025	0.942 ± 0.047
NXF1 (UniProt Q9UBU9)	1.01 ± 0.023	1.02 ± 0.047
LCMT1 (UniProt Q9UIC8)	1.04 ± 0.063	1.02 ± 0.08
ZNHIT2 (UniProt Q9UHR6)	0.919 ± 0.11	0.906 ± 0.086
UniProt Q9UG22	1.01 ± 0.03	1.031 ± 0.0073
UniProt Q9UI30	0.993 ± 0.12	0.965 ± 0.11
NIPSNAP3A (UniProt Q9UFN0)	1.1 ± 0.14	1.06 ± 0.11
PFDN2 (UniProt Q9UHV9)	0.898 ± 0.081	0.872 ± 0.11
UniProt Q9UMZ2-3|Q9UMZ2-4|Q9UMZ2-5|Q9UMZ2-6|Q9UMZ2-7|Q9UMZ2-8|Q9UMZ2-9|Q9UMZ2	0.963 ± 0.015	0.949 ± 0.043
UniProt Q9UK41 and related entries	0.963 ± 0.046	0.951 ± 0.089
TMEM181 (UniProt Q9P2C4)	1.03 ± 0.055	0.963 ± 0.059
ARMCX3 (UniProt Q9UH62)	0.927 ± 0.033	0.893 ± 0.042
UniProt Q9UGR2 and related entries	1.03 ± 0.038	1 ± 0.034
UBA2 (UniProt Q9UBT2)	1 ± 0.041	1.02 ± 0.036

Target	NP40-soluble protein abundance (concentration: 0.1mM)	NP40-soluble protein abundance (concentration: 0.5mM)
PLAA (UniProt Q9Y263)	1.02 ± 0.043	1.01 ± 0.011
MRC2 (UniProt Q9UBG0)	0.977 ± 0.057	0.972 ± 0.035
UniProt Q9ULD0	1.12 ± 0.11	1.1 ± 0.13
UniProt Q9UHA4	1.06 ± 0.12	1 ± 0.14
DPP7 (UniProt Q9UHL4)	0.986 ± 0.046	0.975 ± 0.048
DNAJB4 (UniProt Q9UDY4)	0.957 ± 0.036	0.897 ± 0.029
UniProt Q9ULX6 and related entries	0.946 ± 0.032	0.981 ± 0.096
ZNF219 (UniProt Q9P2Y4)	1.03 ± 0.12	1.07 ± 0.07
UniProt Q9ULL5-3	0.953 ± 0.059	0.946 ± 0.074
XPO7 (UniProt Q9UIA9)	1.02 ± 0.068	0.9952 ± 0.0073
TRAPPC4 (UniProt Q9Y296)	1 ± 0.072	0.97 ± 0.013
TPX2 (UniProt Q9ULW0)	1.01 ± 0.019	1.139 ± 0.011
UniProt Q9UBB6-2|Q9UBB6 and related entries	0.957 ± 0.025	0.888 ± 0.045
UniProt Q9Y250 and related entries	1.02 ± 0.067	1 ± 0.088
UniProt Q9UH92 and related entries	0.973 ± 0.056	1.04 ± 0.039
GGT7 (UniProt Q9UJ14)	1.01 ± 0.13	0.879 ± 0.051
TRMT6 (UniProt Q9UJA5)	1 ± 0.042	1 ± 0.042
DRG1 (UniProt Q9Y295)	1.04 ± 0.061	1.03 ± 0.053
VPS4A (UniProt Q9UN37)	1.11 ± 0.067	1.25 ± 0.14
UniProt Q9Y237 and related entries	0.948 ± 0.024	0.935 ± 0.062
UniProt Q9UHC7 and related entries	0.925 ± 0.06	0.985 ± 0.08
UniProt Q9UQC2 and related entries	0.932 ± 0.045	0.98 ± 0.094

As a working copy, part of the list above:
Target	NP40-soluble protein abundance (concentration: 0.1mM)	NP40-soluble protein abundance (concentration: 0.5mM)
HDAC6 (UniProt Q9UBN7)	1 ± 0.079	0.986 ± 0.071
UniProt Q9P275 and related entries	0.96 ± 0.011	0.979 ± 0.077
ZNF148 (UniProt Q9UQR1)	1.04 ± 0.018	1.02 ± 0.035
UniProt Q9UGU0 and related entries	1 ± 0.079	1.05 ± 0.064

Next results follow:

Target	NP40-soluble protein abundance (concentration: 0.1mM)	NP40-soluble protein abundance (concentration: 0.5mM)
POMP (UniProt Q9Y244)	0.892 ± 0.076	0.849 ± 0.11
CHMP2B (UniProt Q9UQN3)	1.07 ± 0.08	1.12 ± 0.041
UniProt Q9P2R7 and related entries	1.01 ± 0.05	1.02 ± 0.063
UniProt Q9Y259 and related entries	1.05 ± 0.033	1.02 ± 0.054
PACSIN3 (UniProt Q9UKS6)	1.02 ± 0.029	1.008 ± 0.0037
PLCL2 (UniProt Q9UPR0)	0.984 ± 0.091	0.976 ± 0.051
STX8 (UniProt Q9UNK0)	0.908 ± 0.11	0.847 ± 0.13
HMGXB4 (UniProt Q9UGU5)	0.954 ± 0.054	1.03 ± 0.028
PSMC3IP (UniProt Q9P2W1)	0.951 ± 0.076	0.935 ± 0.048
CGN (UniProt Q9P2M7)	1.057 ± 0.004	1.11 ± 0.048
VTI1B (UniProt Q9UEU0)	0.959 ± 0.042	0.9834 ± 0.0074
TUBE1 (UniProt Q9UJT0)	1.07 ± 0.031	0.976 ± 0.057
UniProt Q9UHQ4 and related entries	1.02 ± 0.076	1 ± 0.063
UniProt Q9UEE5	1.05 ± 0.1	1.15 ± 0.1
UniProt Q9UBD5 and related entries	1.07 ± 0.051	1.07 ± 0.061
TTF2 (UniProt Q9UNY4)	0.996 ± 0.018	1.02 ± 0.035
UniProt Q9UHL0 and related entries	1.02 ± 0.073	0.951 ± 0.18
UniProt Q9Y282 and related entries	1.02 ± 0.03	0.997 ± 0.033
UniProt Q9UII2	0.941 ± 0.12	1.02 ± 0.26
UniProt Q9P2R3 and related entries	1.04 ± 0.051	1.03 ± 0.059
